Binding data for 3 molecules are collected here from PMC9818352.

Protein sequences, listed by entry. Tags and fused reporters are not part of them. Residues count along the entry.
UniProt P60903: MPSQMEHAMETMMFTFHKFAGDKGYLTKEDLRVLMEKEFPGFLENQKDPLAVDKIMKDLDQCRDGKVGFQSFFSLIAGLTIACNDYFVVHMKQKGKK
UniProt Q13751, residues 18-1172: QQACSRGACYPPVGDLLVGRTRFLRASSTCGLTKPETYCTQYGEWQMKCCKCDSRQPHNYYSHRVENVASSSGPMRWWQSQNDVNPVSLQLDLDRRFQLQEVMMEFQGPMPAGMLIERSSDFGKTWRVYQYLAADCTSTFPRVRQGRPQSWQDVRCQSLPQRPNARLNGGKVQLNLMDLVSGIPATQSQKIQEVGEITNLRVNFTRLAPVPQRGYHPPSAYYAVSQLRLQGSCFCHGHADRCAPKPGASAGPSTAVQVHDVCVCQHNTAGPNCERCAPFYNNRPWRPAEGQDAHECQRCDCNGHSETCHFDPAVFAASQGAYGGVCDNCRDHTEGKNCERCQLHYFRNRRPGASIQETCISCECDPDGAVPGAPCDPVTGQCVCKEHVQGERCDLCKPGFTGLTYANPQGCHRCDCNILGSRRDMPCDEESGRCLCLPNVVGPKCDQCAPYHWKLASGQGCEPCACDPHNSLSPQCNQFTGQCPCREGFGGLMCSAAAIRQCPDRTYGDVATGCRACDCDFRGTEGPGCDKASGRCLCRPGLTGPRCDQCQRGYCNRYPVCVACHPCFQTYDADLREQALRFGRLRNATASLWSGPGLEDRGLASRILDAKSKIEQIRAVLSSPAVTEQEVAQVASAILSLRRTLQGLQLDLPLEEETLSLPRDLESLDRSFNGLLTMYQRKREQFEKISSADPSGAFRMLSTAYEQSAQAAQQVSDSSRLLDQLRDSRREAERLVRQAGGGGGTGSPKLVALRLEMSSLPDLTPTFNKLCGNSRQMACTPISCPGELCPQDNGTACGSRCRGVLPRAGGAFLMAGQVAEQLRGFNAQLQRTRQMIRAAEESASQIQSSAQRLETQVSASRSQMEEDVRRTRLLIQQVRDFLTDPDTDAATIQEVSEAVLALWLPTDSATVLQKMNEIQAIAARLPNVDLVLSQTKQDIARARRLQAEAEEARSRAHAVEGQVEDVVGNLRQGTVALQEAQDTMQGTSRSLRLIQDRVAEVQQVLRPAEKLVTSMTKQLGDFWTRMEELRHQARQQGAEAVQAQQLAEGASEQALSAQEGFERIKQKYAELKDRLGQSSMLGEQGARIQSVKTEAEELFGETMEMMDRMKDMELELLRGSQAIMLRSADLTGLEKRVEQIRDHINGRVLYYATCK

In test [1] the target is S100A10 over-expressed from a plasmid containing full-length S100A10 cDNA (pS100A10) (human) (UniProt P60903). As to the kind of experiment: co-IP; PDAC cell lines transfected with plasmids (2.5 ng/uL) for 72 h; 500 ug lysate (IP lysis buffer, diluted in 1x PBS) with 5 ug mouse anti-FLAG monoclonal antibody and Protein A+G magnetic beads, 4 °C, 24 h; washed 3 times with cold PBS; western blotting.

The target in test [2] is LAMB3 over-expressed from a plasmid containing full-length LAMB3 cDNA (pLAMB3), Flag-tagged (human) (UniProt Q13751). Described as above.
Test [3] deals with LAMB3, endogenous in PDAC cell lines (human (endogenous in PANC-1 and AsPC-1)) (UniProt Q13751). As to the kind of experiment: co-IP; endogenous proteins; 500 ug total protein of PANC-1 or AsPC-1 cells with 1 ug rabbit anti-LAMB3 polyclonal antibody and 20 uL Protein A+G magnetic beads, 4 °C, 24 h; western blotting.

No constants are given. Whether binding was seen depends on the method and setting. In cells and extracts the contact can be indirect. Some results given as binding are weak or reduced against the parent protein; the word gives no strength.

In the case of “LAMB3, endogenous in PDAC cell lines (from UniProt Q13751 18-1172)”, the binding result in test [1] is listed as “no binding”.
As for “S100A10, endogenous in PDAC cell lines (from UniProt P60903 1-97)”, the binding result in test [2] is reported as “no binding”.

B1: LAMC2, endogenous in PDAC cell lines (protein, UniProt Q13753 22-1193)
chain: TSRREVCDCNGKSRQCIFDRELHRQTGNGFRCLNCNDNTDGIHCEKCKNGFYRHRERDRCLPCNCNSKGSLSARCDNSGRCSCKPGVTGARCDRCLPGFHMLTDAGCTQDQRLLDSKCDCDPAGIAGPCDAGRCVCKPAVTGERCDRCRSGYYNLDGGNPEGCTQCFCYGHSASCRSSAEYSVHKITSTFHQDVDGWKAVQRNGSPAKLQWSQRHQDVFSSAQRLDPVYFVAPAKFLGNQQVSYGQSLSFDYRVDRGGRHPSAHDVILEGAGLRITAPLMPLGKTLPCGLTKTYTFRLNEHPSNNWSPQLSYFEYRRLLRNLTALRIRATYGEYSTGYIDNVTLISARPVSGAPAPWVEQCICPVGYKGQFCQDCASGYKRDSARLGPFGTCIPCNCQGGGACDPDTGDCYSGDENPDIECADCPIGFYNDPHDPRSCKPCPCHNGFSCSVMPETEEVVCNNCPPGVTGARCELCADGYFGDPFGEHGPVRPCQPCQCNNNVDPSASGNCDRLTGRCLKCIHNTAGIYCDQCKAGYFGDPLAPNPADKCRACNCNPMGSEPVGCRSDGTCVCKPGFGGPNCEHGAFSCPACYNQVKIQMDQFMQQLQRMEALISKAQGGDGVVPDTELEGRMQQAEQALQDILRDAQISEGASRSLGLQLAKVRSQENSYQSRLDDLKMTVERVRALGSQYQNRVRDTHRLITQMQLSLAESEASLGNTNIPASDHYVGPNGFKSLAQEATRLAESHVESASNMEQLTRETEDYSKQALSLVRKALHEGVGSGSGSPDGAVVQGLVEKLEKTKSLAQQLTREATQAEIEADRSYQHSLRLLDSVSRLQGVSDQSFQVEEAKRIKQKADSLSSLVTRHMDEFKRTQKNLGNWKEEAQQLLQNGKSGREKSDQLLSRANLAKSRAQEALSMGNATFYEVESILKNLREFDLQVDNRKAEAEEAMKRLSYISQKVSDASDKTQQAERALGSAAADAQRAKNGAGEALEISSEIEQEIGSLNLEANVTADGALAMEKGLASLKSEMREVEGELERKELEFDTNMDAVQMVITEAQKVDTRAKNAGVTIQDTLNTLDGLLHLMDQPLSVDEEGLVLLEQKLSRAKTQINSQLRPMMSELEERARQQRGHLHLLETSIDGILADVKNLENIRDNLPPGCYNTQALEQQ
In the case of B1, in test [3], the binding entry is “binds”.
